Some of the results follow.
Experiments:
Assay in all cases: glycan array binding signal (z-score within array); higher = stronger binding
Details in all cases: glycan notation: IUPAC condensed, linker removed
[1] = molecular target: Gal(b1-4)GlcNAc(b1-3)GalNAc
In short: (§1)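 The binding signal is a Z-score computed within each array and averaged over linkers. Arrays of the same protein sequence at different concentrations or buffers were also averaged together. Data originate from 3228 arrays in the Consortium for Functional Glycomics database, kept only where the protein sequence was available.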

[2] = molecular target: Gal(b1-4)GlcNAc(b1-3)[Fuc(a1-3)GlcNAc(b1-6)]Gal(b1-4)Glc
In short: as §1

[3] = molecular target: Gal(b1-4)GlcNAc(b1-3)[Gal(b1-4)GlcNAc(b1-6)]Gal(b1-4)GlcNAc
In short: as §1

[4] = molecular target: Gal(b1-4)GlcNAc(b1-3)[GlcNAc(b1-6)]Gal(b1-4)GlcNAc
In short: as §1

[5] = molecular target: Gal(b1-4)GlcNAc(b1-6)Gal(b1-4)GlcNAc
In short: as §1

[6] = molecular target: Gal(b1-4)GlcNAc(b1-6)GalNAc
In short: as §1

[7] = molecular target: Gal(b1-4)GlcNAc(b1-6)[Gal(b1-3)]GalNAc
In short: as §1

[8] = molecular target: Gal(b1-4)GlcNAc(b1-6)[Gal(b1-4)GlcNAc(b1-3)]GalNAc
In short: as §1

[9] = molecular target: Gal(b1-4)GlcNAc6P
In short: as §1

[10] = molecular target: Gal(b1-6)Gal
In short: as §1

[11] = molecular target: Gal3S(b1-3)GalNAc
In short: as §1

[12] = molecular target: Gal3S(b1-3)GlcNAc
In short: as §1

[13] = molecular target: Gal3S(b1-3)[Fuc(a1-4)]GlcNAc
In short: as §1

[14] = molecular target: Gal3S(b1-4)Glc
In short: as §1

[15] = molecular target: Gal3S(b1-4)Glc6S
In short: as §1

[16] = molecular target: Gal3S(b1-4)GlcNAc
In short: as §1

[17] = molecular target: Gal3S(b1-4)[Fuc(a1-3)]Glc6S
In short: as §1

[18] = molecular target: Gal3S(b1-4)[Fuc(a1-3)]GlcNAc
In short: as §1

[19] = molecular target: Gal3S(b1-4)[Fuc(a1-3)]GlcNAc6S
In short: as §1

B1: AT1G77380(17) (Arabidopsis thaliana), Q39134 (protein)
chain: MVQNHQTVLAVDMPQTGGSKYLDDDGKNKRTGSVWTASAHIITAVIGSGVLSLAWATAQLGWLAGPVVMLLFSAVTYFTSSLLAACYRSGDPISGKRNYTYMDAVRSNLGGVKVTLCGIVQYLNIFGVAIGYTIASAISMMAIKRSNCFHKSGGKDPCHMNSNPYMIAFGLVQILFSQIPDFDQLWWLSILAAVMSFTYSSAGLALGIAQVVVNGKVKGSLTGISIGAVTETQKIWRTFQALGDIAFAYSYSIILIEIQDTVKSPPSEEKTMKKATLVSVSVTTMFYMLCGCMGYAAFGDLSPGNLLTGFGFYNPYWLLDIANAAIVIHLIGAYQVYCQPLFAFIEKQASIQFPDSEFIAKDIKIPIPGFKPLRLNVFRLIWRTVFVIITTVISMLLPFFNDVVGLLGALGFWPLTVYFPVEMYIAQKKIPRWSTRWVCLQVFSLGCLVVSIAAAAGSIAGVLLDLKSYKPFRSEY
In the case of B1, the “glycan array binding signal (z-score)” value [1] is reported as -0.413, the “glycan array binding signal (z-score)” value [2] is reported as 0.166 and the “glycan array binding signal (z-score)” value [3] is reported as -0.529. The “glycan array binding signal (z-score)” value [4] was 1.28, the “glycan array binding signal (z-score)” value [5] was -0.725 and the “glycan array binding signal (z-score)” value [6] was 0.61. The “glycan array binding signal (z-score)” value [7] was 0.891, the “glycan array binding signal (z-score)” value [8] was -0.041 and the “glycan array binding signal (z-score)” value [9] was -0.806. For the same binder, the “glycan array binding signal (z-score)” value [10] was -0.084, the “glycan array binding signal (z-score)” value [11] was 0.088 and the “glycan array binding signal (z-score)” value [12] was 1.15. The “glycan array binding signal (z-score)” value [13] was -0.061, the “glycan array binding signal (z-score)” value [14] was 0.107 and the “glycan array binding signal (z-score)” value [15] was -0.465. The “glycan array binding signal (z-score)” value [16] was 0.792, the “glycan array binding signal (z-score)” value [17] was 0.338 and the “glycan array binding signal (z-score)” value [18] was -0.327. For the same binder, the “glycan array binding signal (z-score)” value [19] was 0.275.

Reference: the supplement of paper PMC8728848
